The values that follow come from publication PMC4297671.

The target in test [1] is T1, human salivary amylase (human) (UniProt P0DUB6).
T1 sequence: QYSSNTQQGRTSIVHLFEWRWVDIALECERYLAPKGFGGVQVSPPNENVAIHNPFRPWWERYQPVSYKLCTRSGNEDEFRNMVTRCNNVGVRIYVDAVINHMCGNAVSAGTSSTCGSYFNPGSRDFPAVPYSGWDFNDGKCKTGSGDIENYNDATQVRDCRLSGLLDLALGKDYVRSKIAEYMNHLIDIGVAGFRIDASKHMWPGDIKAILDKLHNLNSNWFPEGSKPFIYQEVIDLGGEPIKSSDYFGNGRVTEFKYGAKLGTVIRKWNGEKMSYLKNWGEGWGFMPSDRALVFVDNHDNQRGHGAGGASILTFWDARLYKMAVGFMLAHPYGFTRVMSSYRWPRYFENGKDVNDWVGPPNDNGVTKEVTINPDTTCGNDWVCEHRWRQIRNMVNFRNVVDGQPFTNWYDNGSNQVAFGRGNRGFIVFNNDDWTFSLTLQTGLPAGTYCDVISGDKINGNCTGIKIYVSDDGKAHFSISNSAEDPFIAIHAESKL
Description: affinity purification with mass spectrometry; purified human salivary amylase (50 μg/ml) added to filtered culture supernatant of S. gordonii KS1 (wild type), room temperature, 2 h, static; precipitate collected at 5,000×g; SDS-PAGE, five gel slices, nano-LC/MS/MS; only the target purified.

Test [2] has as its target T1, human salivary amylase (human). Description: condition: only culture supernatant of the AbpA-deficient (ΔAbpA) strain; amylase 50 μg/ml; affinity purification with mass spectrometry; purified human salivary amylase (50 μg/ml) added to filtered culture supernatant of the AbpA-deficient strain ΔAbpA (KS1ΩabpA), room temperature, 2 h, static; precipitate collected at 5,000×g; SDS-PAGE, five gel slices, nano-LC/MS/MS; only the target purified.

Test [3] has the same target. Description: affinity purification with mass spectrometry; purified human salivary amylase (50 μg/ml) added to filtered culture supernatant of the AbpA-deficient strain ΔAbpA (KS1ΩabpA), room temperature, 2 h, static; precipitate collected at 5,000×g; SDS-PAGE, five gel slices, nano-LC/MS/MS; only the target purified.

These are yes or no findings as the source states them, for the method shown. In cells and extracts the contact can be indirect. Here binding means that the protein was enriched with, or labelled near, the bait; the list need not be complete. For some assays here: A no says only that the protein was not detected with the bait.

Regarding “sortase A (SGO_1230) (from UniProt Q9F0P0)”, the results for the binding result in test [1] and in test [2] were “binds” and “no binding”, respectively.
Take “Isopropylmalate isomerase large subunit (from UniProt A8AWP5)”: the binding result in test [1] and in test [3] was “binds” throughout.
For the molecule “cardiolipin synthase (SGO_2037) (from UniProt A8AZS5)”, the binding entry in test [1] was “binds”; in test [2], “no binding”.

B1: Hypothetical protein SGO_0483 (protein, UniProt A8AVI9 1-302)
chain: MSITFSVSNKRGLLGFQKVLKISELLGLVDGLEPHPAQKDSLALGLDKLPLLKCWVPAKSGRYMDVEYDKTHKTYNVRILTPSTLADWEYALTLVSKLSAYLGTSIHDEHGREYSSSSVLAFPYQEDILLGLENFLKSGYPLVYQDGVRRRIALNPQMVEGFLKEDNPAQSYSNFFTLRQYLDAYDAQSKFYGNEQNQQILGVYTLTAGVDTILPFELSLAPEDVEYIDESKLSWCCNLVGCDDTDPDNVEKFFFYKRISYSDFLDRLPKDMAQVFDGEKIYVPAMTFAQMKDLFDSCPELV
On to B1, for which the binding result in test [1] is given as “binds”; in test [2], “no binding”.

B2: cation-transporting ATPase YfgQ (T3 secretion) (SGO_1458) (protein, UniProt A8AY77 1-780)
chain: MHQNQFQGLSQAQVEERRQKGLTNQVTISTEKTTWQIVQSNIFTYFNFIFLVLAILLVLVQSWNNLLFVPIVVINSLIGIFQELRARKVLNKMRLLHTFSANVIRDGEEQVVSVEELVQDDVVKFSAGNQIYADGQILSGSLKVNESQLTGEADEIEKNPGDEVLSGSFVVAGQAYARLDKVGDQAYINQLAKEAKEISGVEESKMVHAVNRLVQIIGILIIPLGIMLFFRSFISNQETFQVSVTSTVGAIVGMIPEGLYLLMTLALVLGAMRLAKQKVLLNSMKGIETLSRVDVLCVDKTGTITENSMTVSQLIPVGDQKEVALEALSHYLEASQDTNDTIETLRAYPGIEKSGQAWSIKRQYPFSSKNKYAAVAFDQGTFVLGAPEYVLRRDLEHYQSYFQEVAEEGSRVLVFGRYEGENLEAGLEAPVIPFLFIVLENPVRENAAETFSYFERQGVTVKVISGDNPLTVSAVAKKAKIPHAENYVDARSLDSDEKIIQAAETYTVFGRVSPEQKQKLVQALQGQGHNVAMTGDGVNDILAMKKADCSIAMESGNDATKQIAQVVLLDSDFSHMPHIVAEGRRVVNNIQRSASLFLVKNIFSILLALTSTIFAFTYPLQASQMSLISGFTIGIPGFLLALEPNKERIRGRFLETVLKNALPAAIVDYLAVLVAVYCGHWLGLSPKEISTSSIILLAVVGFTIMYKLIRPLNRIKIGIMLLNIIGMILAALLLPRIFNLSGLSIAAILMTVLLSLLLERLIWFFQFLTNKAVALYKKRK
B2: the binding entry in test [1] is “binds”; in test [2], “no binding”.

B3: Argininosuccinate synthase (protein, UniProt A8AUN6 1-399)
chain: MVKEKVILAYSGGLDTSVAITWLNKDYDVIAVCMDVGEGNDLDFIHDKALKVGAIESHVIDVKDEFAEDYVLVALQGHTFYEQKYPLVSALSRPLISKKLVEIAHKTGATTIAHGCTGKGNDQVRFEVAIASLDPSLKVIAPVREWKWSREEEINYAKANGVPIPADLDSPYSVDQNLWGRANECGVLENPWNEAPEDAYDLTVAPEAAPDSPVYVNIDFEAGVPVALDGKKMKLADLILELNDLAGQHGVGRIDHVENRLVGIKSREIYECPGAVTLLAAHKEIEDLTLVRELAHFKPIIENELSNLIYNGLWFNPATEALIAYLKSTQQVVNGTAKVKLYKGSATVVARKSDNSLYDESLATYTSADTFDQDAAIGFIKLWGLPSKVHAEVQAHKDK
Take B3: the binding result in test [1] was “binds”.

B4: isocitrate dehydrogenase (SGO_1611) (protein, UniProt A8AYM8 1-399)
chain: MADKILFEKGRLQVPDAPIIPYIQGDGIGVDIWKNAQLIFDEAVEKAYGGQRKVVWKEVLAGEKASDLTGNWLPDETLTTIKDCLVAIKGPLETPVGEGIRSLNVALRQELDLYACLRPVRYFKGVPSPLKHPEKTDITIFRENTEDIYAGIEWESGTTAVQKVIDFLQEDMQVDKIRFPKSSAIGIKPISKQGSERLIRAAIDYALAKGRLRRVTLVHKGNIQKFTEGGFRKWGYELAQREYADELASRKLIIQDVIADNFLQQILLYPEKFDVVALTNLNGDYASDALAAQVGGIGIAPGANINYETGHAIFEATHGTAPDIAGQNKANPCSLLLSGAMLFDYIGWSEVSHLLTKAVEKALFEQKVTGDFASQLEGVTALTTSQFAEELLANIEKCP
On to B4, for which the binding result in test [1] is “binds”; in test [2], “no binding”.

B5: Peptide chain release factor 1 (protein, UniProt P47850 1-359)
chain: MNIYEQLQAVEDRYEELGELLSDPDVVSDTKRFMELSKEEASTRDTVTAYREYKQVLQNIVDAEEMIKESGGDADLEEMAKQELKDAKAEKEEYEEKLKILLLPKDPNDDKNIILEIRGAAGGDEAQLFAGDLLQMYQKYAESQGWRFEVMEASYNGVGGIKEVVAMVSGQSVYSKLKYESGAHRVQRVPVTESQGRVHTSTATVLVMPEIEEVEYDIDPKDLRVDIYHASGAGGQNVNKVATAVRIVHLPTNIKVEMQEERTQQKNRDKAMKIIRARVADHFAQIAQDEQDAERKSTIGTGDRSERIRTYNFPQNRVTDHRIGLTLQKLDTILAGKLDEVVDALVLYDQTQKLEELNK
Regarding B5, the binding result in test [1] was “binds”.
